Measurements taken from patent publication US20120045393A1 (priority 2009, published 2012).

Experiment: general procedure: Fmoc solid-phase peptide synthesis; Fmoc-PAL-PEG-PS resin (0.2 mmol/g) preloaded with Fmoc-Pro-azaGly; Fmoc-Pro/Fmoc-Gly-NovaSyn-TGT resin (0.22 mmol/g); 2-; PyBop-DIEA; FastMoc protocol; DIC for bromoacetic acid
Settings: whole synthesis
[1] = scale of the general procedure typically 50 mmol (as printed, 50-umol elsewhere) on Symphon

Substance | isolated mass [mg] | isolated yield [1] [%] | isolated mass (scale 0.25 mmol) [mg] | isolated yield (scale 0.25 mmol) [%]
DO3A10CM-Dna12-Arg-Trp-Ser-His-Darg-Trp-Bpa4-Pro-Pheol | 25.4 | 5.1 |  | 
DO3A10CM-Dna12-Arg-Trp-Ser-His-Darg-Trp-Bpa4-Pro-Gly-Abn | 36.5 | 23 |  | 
DO3A10CM-Dna12-Arg-Trp-Ser-His-Darg-Trp-Bpa4-Pro-Ae | 56.0 | 36.6 |  | 
DO3A1-CM-Dna12-Arg-Trp-Ser-His-Darg-Trp-Bpa4-Pro-Ach2 | 22.0 | 4.6 |  | 
DO3A10CM-Dna12-Arg-Trp-Ser-His-Darg-Trp-Bpa4-Pro-Gly-Gln-NH2 | 29.0 | 5.7 |  | 
DO3A10CM-Dna12-Arg-Trp-Ser-His-Darg-Trp-Bpa4-Pro-Gly-Abt1h4 | 11.3 | 7 |  | 
DO3A10CM-Dna12-Arg-Trp-Ser-His-Darg-Trp-Bpa-Pro-Gly-Abn | 18.2 | 11 |  | 
Sar-Arg-Trp-Ser-His-Darg-Trp-Bpa4-Pro-Da15o3pt | 59.0 | 16.4 |  | 
DO3A10CM-Dna12-Arg-Trp-Ser-His-Darg-Trp-Bpa4-Pro-Az23m2po-NH2 | 18.7 | 3.9 |  | 
DO3A10CM-Dna12-Arg-Trp-Ser-His-Darg-Trp-Bpa4-Pro-Da15o3pt | 16.4 | 3.4 |  | 
DO3A10CM-Sar-Arg-Trp-Ser-His-Darg-Trp-Bpa4-Pro-Az23po-Dabt14 | 20.5 | 4.4 |  | 
DO3A10CM-Dna12-Arg-Trp-Ser-His-Darg-Trp-Bpa4-Pro-Gly-Phe-NH2 | 15.5 | 3 |  | 
DO3A10CM-Dna12-Arg-Trp-Ser-His-Darg-Trp-OH | 53.5 | 14.2 |  | 
DO3A10CM-Sar-Arg-Trp-Ser-His-Darg-Trp-Bpa4-Pro-Az23po-Da15o3pt | 31.0 | 6.6 |  | 
DO3A10CM-Dna12-Arg-Trp-Ser-His-Darg-Trp-Bpa4-Pro-Aprp1h3 | 12.3 | 7.9 |  | 
DO3A10CM-Dna12-Arg-Trp-Ser-His-Darg-Trp-Bpa4-Pro-Gly-NH2 | 12.7 | 2.7 |  | 
DO3A10CM-Dna12-Arg-Trp-Ser-His-Darg-Trp-Bpa4-OH | 119 | 27 |  | 
DO3A10CM-Dna12-Arg-Trp-Ser-His-Darg-Trp-Bpa4-Pro-Gly-Aprp1h3 | 30.0 | 18.6 |  | 
DO3A10CM-Dna12-Arg-Trp-Ser-His-Darg-Trp-Bpa4-Pro-Gly-Az23(py2)2po-Ap | 1.2 | 0.7 |  | 
DO3A10CM-Dna12-Arg-Trp-Ser-His-Darg-Trp-Bpa4-Pro-Gly-Arg-NH2 | 24.2 | 4.7 |  | 
DO3A10CM-Dnal2-Arg-Trp-Ser-His-Darg-Trp-Bpa4-Pro-Az34 m3buo-NH2 |  |  | 14.5 | 3
DO3A10CM-Dna12-Arg-Trp-Ser-His-Darg-Trp-Bpa4-Pro-Ap | 5.6 | 1.2 |  | 
DO3A10CM-Dna12-Arg-Trp-Ser-His-Darg-Trp-Bpa4-Pro-Gua | 16.0 | 10.4 |  | 
DO3A10CM-Dna12-Arg-Trp-Ser-His-Darg-Trp-Bpa4-Pro-A1guao3pt | 15.5 | 9.6 |  | 
DO3A10CM-Dna12-Arg-Trp-Ser-His-Darg-Trp-Bpa4-Pro-Mo2abn | 26.5 | 16.6 |  | 
DO3A100CM-Dna12-Arg-Trp-Ser-His-Darg-Trp-Bpa4-Pro-Gly-Abt1h4 | 18.0 | 11.5 |  | 
